Some results were stated once for a whole list of compounds, not compound by compound.
Tested on: murine bone marrow-derived mast cells (BMMC)
Assay: Degranulation of antigen-activated mast cells (β-hexosaminidase)
Assay type: cell-based
Details: 15 minute pre-incubation; FIG. 7 and FIG. 8

Q: Which reduction in degranulation does the source give for `O=C(O)c1cc(=O)c2c(OCC(O)COc3cccc4oc(C(=O)O)cc(=O)c34)cccc2o1` [Cromoglycate, sodium cromoglycate] here?
A: Its reduction in degranulation is “at least 50%”.

Source: patent publication US20070196434A1, “Methods of preventing or treating sinusitis with oxidative reductive potential water solution” (priority 2006, published 2007)
